The results in this text go back to the supplement of paper PMC12819154, “High-throughput peptide-centric local stability assay extends protein–ligand identification to membrane proteins, tissues and bacteria” (Nature Structural & Molecular Biology, 2025).

Chains of the proteins cited; added tags and fusions are not shown. Lines headed by an entry give the natural chain unless they say otherwise; changes in a name come on top.
UniProt A9JSM3: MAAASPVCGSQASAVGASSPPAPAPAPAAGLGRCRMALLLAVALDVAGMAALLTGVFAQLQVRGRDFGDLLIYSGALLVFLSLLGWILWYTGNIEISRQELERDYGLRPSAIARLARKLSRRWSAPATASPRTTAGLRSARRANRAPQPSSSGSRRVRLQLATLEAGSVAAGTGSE
UniProt A8C756: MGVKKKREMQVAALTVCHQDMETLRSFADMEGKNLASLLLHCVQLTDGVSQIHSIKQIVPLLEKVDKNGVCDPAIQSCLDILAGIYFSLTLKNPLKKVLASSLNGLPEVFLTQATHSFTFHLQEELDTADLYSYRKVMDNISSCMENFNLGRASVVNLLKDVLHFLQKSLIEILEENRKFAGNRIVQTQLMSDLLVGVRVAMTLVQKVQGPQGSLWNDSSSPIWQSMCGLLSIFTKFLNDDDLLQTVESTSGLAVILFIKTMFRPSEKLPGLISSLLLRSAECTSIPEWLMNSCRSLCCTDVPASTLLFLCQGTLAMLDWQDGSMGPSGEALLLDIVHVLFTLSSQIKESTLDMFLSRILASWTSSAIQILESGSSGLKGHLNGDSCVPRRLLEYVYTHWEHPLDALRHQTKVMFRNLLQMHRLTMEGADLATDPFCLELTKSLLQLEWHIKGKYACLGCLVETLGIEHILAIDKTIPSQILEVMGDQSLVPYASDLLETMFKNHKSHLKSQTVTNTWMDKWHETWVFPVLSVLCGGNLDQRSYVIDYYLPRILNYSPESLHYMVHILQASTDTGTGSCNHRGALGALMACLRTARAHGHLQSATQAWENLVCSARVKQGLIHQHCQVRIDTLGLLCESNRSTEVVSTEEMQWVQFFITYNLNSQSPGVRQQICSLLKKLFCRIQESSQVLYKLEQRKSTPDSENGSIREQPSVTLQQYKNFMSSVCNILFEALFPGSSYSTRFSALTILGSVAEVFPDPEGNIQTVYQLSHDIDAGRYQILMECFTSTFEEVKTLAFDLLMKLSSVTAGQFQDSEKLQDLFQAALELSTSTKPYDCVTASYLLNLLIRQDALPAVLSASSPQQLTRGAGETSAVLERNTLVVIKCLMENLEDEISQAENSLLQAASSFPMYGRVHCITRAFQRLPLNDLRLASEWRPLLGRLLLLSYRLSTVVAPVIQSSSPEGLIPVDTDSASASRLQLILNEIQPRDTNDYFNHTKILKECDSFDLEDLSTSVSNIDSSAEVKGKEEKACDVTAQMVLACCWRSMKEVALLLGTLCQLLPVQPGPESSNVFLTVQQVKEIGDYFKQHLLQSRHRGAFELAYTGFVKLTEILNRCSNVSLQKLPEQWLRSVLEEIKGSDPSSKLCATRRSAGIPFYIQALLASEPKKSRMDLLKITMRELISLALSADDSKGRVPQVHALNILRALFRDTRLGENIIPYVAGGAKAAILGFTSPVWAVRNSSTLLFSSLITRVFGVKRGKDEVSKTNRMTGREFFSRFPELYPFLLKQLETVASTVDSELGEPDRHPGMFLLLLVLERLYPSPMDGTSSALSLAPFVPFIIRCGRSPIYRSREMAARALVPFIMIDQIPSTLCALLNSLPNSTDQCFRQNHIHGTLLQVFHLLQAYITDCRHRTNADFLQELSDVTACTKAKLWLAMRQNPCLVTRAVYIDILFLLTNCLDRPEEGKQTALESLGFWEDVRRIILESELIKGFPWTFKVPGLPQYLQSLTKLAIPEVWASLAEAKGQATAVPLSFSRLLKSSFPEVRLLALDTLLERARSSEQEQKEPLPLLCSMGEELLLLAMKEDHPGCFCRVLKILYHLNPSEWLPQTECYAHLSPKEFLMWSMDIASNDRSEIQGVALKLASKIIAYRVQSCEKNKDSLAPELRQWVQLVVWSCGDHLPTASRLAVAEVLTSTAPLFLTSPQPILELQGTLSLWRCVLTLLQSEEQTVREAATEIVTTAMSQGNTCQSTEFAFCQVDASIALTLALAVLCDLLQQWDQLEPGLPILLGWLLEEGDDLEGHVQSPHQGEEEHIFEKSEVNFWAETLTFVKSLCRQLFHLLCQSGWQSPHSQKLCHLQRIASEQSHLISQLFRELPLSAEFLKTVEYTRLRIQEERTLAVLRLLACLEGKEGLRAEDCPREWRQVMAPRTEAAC
UniProt A6H5Z3: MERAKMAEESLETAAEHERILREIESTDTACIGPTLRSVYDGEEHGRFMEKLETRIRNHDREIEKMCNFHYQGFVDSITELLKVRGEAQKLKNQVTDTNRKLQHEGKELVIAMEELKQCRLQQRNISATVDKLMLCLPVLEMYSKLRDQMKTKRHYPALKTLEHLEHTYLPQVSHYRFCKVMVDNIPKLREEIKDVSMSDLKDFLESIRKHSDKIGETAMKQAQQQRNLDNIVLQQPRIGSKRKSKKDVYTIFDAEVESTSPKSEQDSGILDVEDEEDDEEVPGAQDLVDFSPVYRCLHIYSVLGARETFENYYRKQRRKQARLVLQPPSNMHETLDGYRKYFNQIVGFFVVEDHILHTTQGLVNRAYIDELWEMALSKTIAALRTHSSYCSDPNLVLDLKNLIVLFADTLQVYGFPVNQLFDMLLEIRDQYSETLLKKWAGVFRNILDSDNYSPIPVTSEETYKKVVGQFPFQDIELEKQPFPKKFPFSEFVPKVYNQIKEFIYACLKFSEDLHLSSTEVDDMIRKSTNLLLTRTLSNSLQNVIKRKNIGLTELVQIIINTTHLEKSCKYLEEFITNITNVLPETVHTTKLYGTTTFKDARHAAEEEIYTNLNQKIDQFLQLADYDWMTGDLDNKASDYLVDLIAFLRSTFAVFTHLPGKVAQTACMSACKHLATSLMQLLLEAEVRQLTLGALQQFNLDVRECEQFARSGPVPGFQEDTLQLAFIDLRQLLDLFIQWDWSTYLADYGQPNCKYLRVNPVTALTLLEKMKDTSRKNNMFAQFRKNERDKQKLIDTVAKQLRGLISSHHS
UniProt B2KF05: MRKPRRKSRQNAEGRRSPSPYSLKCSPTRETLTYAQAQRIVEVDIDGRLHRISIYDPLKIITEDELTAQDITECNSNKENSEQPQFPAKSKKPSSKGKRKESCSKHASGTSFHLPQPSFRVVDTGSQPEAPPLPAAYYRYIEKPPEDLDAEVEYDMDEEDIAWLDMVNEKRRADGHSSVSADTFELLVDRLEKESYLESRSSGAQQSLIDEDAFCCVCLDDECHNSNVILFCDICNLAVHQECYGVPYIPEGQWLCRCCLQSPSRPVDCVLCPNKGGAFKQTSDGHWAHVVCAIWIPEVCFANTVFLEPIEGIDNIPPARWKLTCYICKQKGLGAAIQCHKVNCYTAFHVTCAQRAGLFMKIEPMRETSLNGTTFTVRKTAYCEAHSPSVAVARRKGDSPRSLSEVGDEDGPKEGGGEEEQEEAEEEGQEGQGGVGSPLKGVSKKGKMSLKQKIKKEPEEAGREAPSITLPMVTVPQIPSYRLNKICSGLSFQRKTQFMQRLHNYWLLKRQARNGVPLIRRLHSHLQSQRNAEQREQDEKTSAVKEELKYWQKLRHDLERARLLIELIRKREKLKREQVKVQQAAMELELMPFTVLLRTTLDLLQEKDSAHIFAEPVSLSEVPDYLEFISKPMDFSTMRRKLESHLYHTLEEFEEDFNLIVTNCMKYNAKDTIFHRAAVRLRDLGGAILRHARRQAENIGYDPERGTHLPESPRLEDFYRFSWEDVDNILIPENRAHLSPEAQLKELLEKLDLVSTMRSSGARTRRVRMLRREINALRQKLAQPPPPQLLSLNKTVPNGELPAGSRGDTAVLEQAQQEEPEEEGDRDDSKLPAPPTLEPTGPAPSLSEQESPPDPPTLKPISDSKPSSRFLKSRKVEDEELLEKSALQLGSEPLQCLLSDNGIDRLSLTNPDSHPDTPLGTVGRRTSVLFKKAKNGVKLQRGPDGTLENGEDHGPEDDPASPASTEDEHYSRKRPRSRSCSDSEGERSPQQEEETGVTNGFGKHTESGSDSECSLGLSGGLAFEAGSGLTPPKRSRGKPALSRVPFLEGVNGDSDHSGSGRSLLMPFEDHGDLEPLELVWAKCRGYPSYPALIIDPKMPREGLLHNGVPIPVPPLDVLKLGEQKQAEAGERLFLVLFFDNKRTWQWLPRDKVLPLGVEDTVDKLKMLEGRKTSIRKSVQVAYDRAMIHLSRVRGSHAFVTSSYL
UniProt A2A9F4: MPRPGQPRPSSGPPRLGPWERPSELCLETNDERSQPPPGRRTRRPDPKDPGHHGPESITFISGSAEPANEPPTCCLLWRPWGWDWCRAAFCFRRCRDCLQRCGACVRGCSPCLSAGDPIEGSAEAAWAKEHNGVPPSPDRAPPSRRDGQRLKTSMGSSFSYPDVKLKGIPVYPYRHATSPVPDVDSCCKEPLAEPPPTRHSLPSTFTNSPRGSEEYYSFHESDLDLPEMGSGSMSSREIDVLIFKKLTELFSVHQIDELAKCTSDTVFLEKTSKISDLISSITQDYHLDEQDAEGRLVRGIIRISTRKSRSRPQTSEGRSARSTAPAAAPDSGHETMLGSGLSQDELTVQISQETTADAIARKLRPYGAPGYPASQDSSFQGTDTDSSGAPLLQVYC
UniProt A2AGT5: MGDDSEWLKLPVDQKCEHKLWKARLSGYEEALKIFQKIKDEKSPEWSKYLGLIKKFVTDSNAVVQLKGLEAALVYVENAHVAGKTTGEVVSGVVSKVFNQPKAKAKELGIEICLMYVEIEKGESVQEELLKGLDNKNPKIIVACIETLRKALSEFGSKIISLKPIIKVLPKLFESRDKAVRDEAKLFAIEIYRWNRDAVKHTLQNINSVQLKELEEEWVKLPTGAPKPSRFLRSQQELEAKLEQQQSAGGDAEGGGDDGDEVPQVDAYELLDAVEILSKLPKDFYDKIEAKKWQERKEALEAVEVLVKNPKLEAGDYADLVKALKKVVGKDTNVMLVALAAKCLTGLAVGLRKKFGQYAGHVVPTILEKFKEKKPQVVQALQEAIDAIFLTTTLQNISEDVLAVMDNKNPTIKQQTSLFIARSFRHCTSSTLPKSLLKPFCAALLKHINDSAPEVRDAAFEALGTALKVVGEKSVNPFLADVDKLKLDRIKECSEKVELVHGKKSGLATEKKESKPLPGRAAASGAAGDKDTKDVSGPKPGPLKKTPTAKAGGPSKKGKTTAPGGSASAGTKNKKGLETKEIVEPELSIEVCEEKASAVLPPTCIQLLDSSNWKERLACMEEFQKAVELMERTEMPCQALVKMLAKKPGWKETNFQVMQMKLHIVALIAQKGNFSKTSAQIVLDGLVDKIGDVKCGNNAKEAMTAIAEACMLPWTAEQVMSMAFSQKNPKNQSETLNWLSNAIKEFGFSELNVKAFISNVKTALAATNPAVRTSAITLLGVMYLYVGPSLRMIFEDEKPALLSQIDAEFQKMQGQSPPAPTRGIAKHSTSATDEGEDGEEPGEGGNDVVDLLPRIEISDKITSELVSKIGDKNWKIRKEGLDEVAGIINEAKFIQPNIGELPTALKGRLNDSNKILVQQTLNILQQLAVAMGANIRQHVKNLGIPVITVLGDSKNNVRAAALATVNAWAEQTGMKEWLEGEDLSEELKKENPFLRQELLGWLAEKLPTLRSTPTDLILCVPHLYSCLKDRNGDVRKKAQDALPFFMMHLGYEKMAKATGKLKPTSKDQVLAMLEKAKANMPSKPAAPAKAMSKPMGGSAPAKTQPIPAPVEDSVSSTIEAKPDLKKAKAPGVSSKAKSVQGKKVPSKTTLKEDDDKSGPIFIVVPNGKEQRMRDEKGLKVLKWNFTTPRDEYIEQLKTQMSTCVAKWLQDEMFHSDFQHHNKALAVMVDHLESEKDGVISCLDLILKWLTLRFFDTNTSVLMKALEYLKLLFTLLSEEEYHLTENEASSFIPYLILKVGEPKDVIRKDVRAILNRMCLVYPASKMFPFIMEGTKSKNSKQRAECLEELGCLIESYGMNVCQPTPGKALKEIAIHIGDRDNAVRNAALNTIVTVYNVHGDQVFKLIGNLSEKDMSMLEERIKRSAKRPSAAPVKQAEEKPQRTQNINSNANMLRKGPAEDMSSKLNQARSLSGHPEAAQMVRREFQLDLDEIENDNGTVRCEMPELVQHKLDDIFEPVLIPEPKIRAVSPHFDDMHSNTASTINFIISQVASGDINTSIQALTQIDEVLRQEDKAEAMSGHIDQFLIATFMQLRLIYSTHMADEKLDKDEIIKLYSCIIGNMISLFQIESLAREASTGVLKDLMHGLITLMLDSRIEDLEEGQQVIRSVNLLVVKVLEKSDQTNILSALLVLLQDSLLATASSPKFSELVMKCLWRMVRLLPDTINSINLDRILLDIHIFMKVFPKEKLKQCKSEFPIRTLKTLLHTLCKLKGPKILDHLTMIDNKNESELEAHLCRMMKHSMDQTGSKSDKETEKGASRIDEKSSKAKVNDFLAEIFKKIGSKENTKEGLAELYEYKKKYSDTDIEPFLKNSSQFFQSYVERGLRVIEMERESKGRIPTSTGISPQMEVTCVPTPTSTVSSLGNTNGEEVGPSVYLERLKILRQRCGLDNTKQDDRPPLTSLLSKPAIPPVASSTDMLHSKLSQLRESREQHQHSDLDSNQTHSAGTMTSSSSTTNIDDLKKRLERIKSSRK

The list shows a part of the results. Most values lie at the level of the controls, where differences are scatter.

Compound in this experiment: CN[C@@H]1C[C@H]2O[C@@](C)([C@@H]1OC)n1c3ccccc3c3c4c(c5c6ccccc6n2c5c31)C(=O)NC4 [staurosporine]
Nature of the experiment: log2 fold change of tryptic peptide abundance, ligand vs vehicle (limited proteolysis) (log2 ratio); higher = more trypsin-susceptible (destabilized). The note with it: ligand concentration: 20 uM; sample: mouse liver crude lysate; replicate design: treated separately.
With “A0A1W2P872 (peptide sequence: KRPLETPPEVVCTK, peptide start residue: 10), A0A1W2P872”, the log2 fold change is -0.714. Regarding “UniProt A9JSM3 (peptide sequence: DYGLRPSAIAR, peptide start residue: 104)”, the log2 fold change was 0.391. The same measure for “UniProt A2AB59 (peptide sequence: SRDGSEYLIQHDSEAIISTWHK, peptide start residue: 565)”: -0.000886; for “UniProt A2A6T1 (peptide sequence: LQTLVGVLR, peptide start residue: 195)”: 0.268.

Consider “UniProt A2A791 (peptide sequence: AVAPQQGLLDR, peptide start residue: 261)”, for which the log2 fold change amounted to 0.184. Turning to “UniProt A3FIN4 (peptide sequence: RMSVIVR, peptide start residue: 546)”, the log2 fold change turned out to be 0.0227. Under “UniProt A2RSJ4 (peptide sequence: DGASSDSVVR, peptide start residue: 1371)” stands -0.284. Under “UniProt A2AT37 (peptide sequence: GAPNADLIFK, peptide start residue: 1254)” stands 0.225; under “UniProt A8C756 (peptide sequence: LQLILNEIQPR, peptide start residue: 979)”, -0.102; under “UniProt B1AUE5 (peptide sequence: ASQGSLLPGGR, peptide start residue: 124)”, -0.0262. With “UniProt A2AN08 (peptide sequence: LFQLTEK, peptide start residue: 1433)”, the log2 fold change worked out at 0.238. With “UniProt B2RRD7 (peptide sequence: LGEQMTQEAR, peptide start residue: 1128)”, the log2 fold change was -0.301.

“UniProt A6H5Z3 (peptide sequence: CLHIYSVLGAR, peptide start residue: 297)”: the log2 fold change turned out to be 0.324. For the target “UniProt A6PWD2 (peptide sequence: LYTDMIK, peptide start residue: 1215)”, the log2 fold change was determined as 0.157. Under “UniProt A2AI08 (peptide sequence: RSDFLQK, peptide start residue: 226)” stands -0.848.

In the case of “UniProt A3KGS3 (peptide sequence: VVQVYRK, peptide start residue: 70)”, the log2 fold change was -0.158. The same measure for “UniProt A2RTL5 (peptide sequence: MLWQGKK, peptide start residue: 279)”: 0.51; for “UniProt B1AVZ0 (peptide sequence: QVNSTSSPSPEHLLAEDR, peptide start residue: 17)”: 0.404.

Regarding “UniProt B1AY13 (peptide sequence: ESNSLFPAGIR, peptide start residue: 1354)”, the log2 fold change was determined as 0.199. The same measure for “UniProt A2A432 (peptide sequence: LRFEDTLEFVGIDTK, peptide start residue: 173)”: -0.407; for “UniProt A2AR02 (peptide sequence: SKGQENDHVHDKNK, peptide start residue: 723)”: 0.609; for “UniProt A2RSY1 (peptide sequence: GKIPTLIDR, peptide start residue: 220)”: 0.398. Under “UniProt B2KF05 (peptide sequence: ETLTYAQAQR, peptide start residue: 29)” stands 0.101.

For “UniProt A2AR50 (peptide sequence: EDLAGPSAGSSSAR, peptide start residue: 300)”, the log2 fold change came to 0.276. Under “UniProt A2CG49 (peptide sequence: PYSSGPVGSEKPPK, peptide start residue: 2236)” stands -0.656.

“UniProt A2A9F4 (peptide sequence: GIPVYPYR, peptide start residue: 168)”: the log2 fold change is -0.12.

As for “A0A7N9VSG0 (peptide sequence: EAILQVITSK, peptide start residue: 370), A0A7N9VSG0”, the log2 fold change is -0.329.

Turning to “UniProt A2AWL7 (peptide sequence: HNKVDNLEADHPSYK, peptide start residue: 429)”, the log2 fold change was -0.731.

Take “UniProt A2AJT4 (peptide sequence: GNLSGNSHK, peptide start residue: 647)”: the log2 fold change is 0.778. The same measure for “UniProt A2RT67 (peptide sequence: KASPLHITHR, peptide start residue: 540)”: 0.428; for “UniProt A2AM05 (peptide sequence: KSTPEKNEK, peptide start residue: 669)”: 0.0938. As for “UniProt A2RSY6 (peptide sequence: HLQNLHWK, peptide start residue: 137)”, the log2 fold change worked out at 0.768. The same measure for “UniProt B1AXD8 (peptide sequence: LAEQYDAFVK, peptide start residue: 173)”: 0.099. Under “UniProt A2AWA9 (peptide sequence: QKVDDCDRCR, peptide start residue: 959)” stands 0.515; under “UniProt A2AGT5 (peptide sequence: DQVLAMLEK, peptide start residue: 1067)”, -0.338.
